Laboratory results from patent US20030074682A1, “Isolation, characterization, and use of a novel teleost potassium channel” (priority 2001, published 2003).
Where two headings read alike, the source gives them in different places. Some of these results come from one statement about several compounds together.

Test system: zebrafish larvae
Description: About 50 zebrafish larvae were incubated for 2-7 d at 22-28° C. in petri dishes filled with 30 ml embryo medium.
At the day of the experiment 10 larvae were transferred to small petri dishes filled with 10 ml embryo medium, 0.5 ml MESAB solution (0.2% ethyl-m-aminobenzoate methane-sulfonate+1% Na2HPO4×2H2O, pH 7.2) and 10 μl of the respective drug (or +10 μl of a second drug) added from a 1000-fold stock solution prepared with DMSO, these three components were previously mixed in 50 ml plastic tubes (controls only receive 10 or 20 μl DMSO).
At certain time points the contractility of the heart and blood flow was monitored, and the heart rate was determined by counting the heart beat with the aid of a stereo-microscope.
In order to evaluate if zebrafish is a suitable model organism to study drug-induced QT-prolongation we investigated the effect of known QT-prolonging medicaments on the heart beat rate of zebrafish larvae. Compounds were added to the media in which the larvae were bathed and the heart beat rate was recorded by microscopy.

| Compound | incubation time until atrioventricular block (1 μM) | incubation time until atrioventricular block (10 μM) |
| --- | --- | --- |
| O=c1[nH]c2ccccc2n1C1CCN(CCCC(c2ccc(F)cc2)c2ccc(F)cc2)CC1 [pimozide] | less than 5 min | – |
| O=C(CCCN1CCC(O)(c2ccc(Cl)cc2)CC1)c1ccc(F)cc1 [haloperidol] | – | less than 5 min |
